Source: publication PMC4489804
These are yes or no findings as the source states them, for the method shown. Binding seen in cells or lysates may run through a third protein. Some entries that bind do so weakly or less than the wild type. For some assays here: Where a sequence is shown, tags or fusion partners need not be part of it. Values belong to the molecule of their own block, whether it stands above or below them.

Protein sequences, listed by entry. Tags and fused reporters are not part of them.
UniProt Q9FY89: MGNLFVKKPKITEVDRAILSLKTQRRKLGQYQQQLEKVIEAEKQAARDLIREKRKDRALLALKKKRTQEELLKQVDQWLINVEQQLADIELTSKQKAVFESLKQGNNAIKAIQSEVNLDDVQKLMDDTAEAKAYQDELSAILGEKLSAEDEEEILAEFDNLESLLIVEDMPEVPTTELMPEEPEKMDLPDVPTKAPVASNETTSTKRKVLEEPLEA

What was measured:
VPS25-YFPC = biological target: T1, VPS25-YFPC (UniProt Q8VZC9); test: split reporter; BiFC with YFPN and YFPC fusions under the 35S promoter in transiently transformed N. benthamiana leaf epidermis cells, 72 h post-transfection; DCP2-mCHERRY or free RFP coexpressed
T1 sequence: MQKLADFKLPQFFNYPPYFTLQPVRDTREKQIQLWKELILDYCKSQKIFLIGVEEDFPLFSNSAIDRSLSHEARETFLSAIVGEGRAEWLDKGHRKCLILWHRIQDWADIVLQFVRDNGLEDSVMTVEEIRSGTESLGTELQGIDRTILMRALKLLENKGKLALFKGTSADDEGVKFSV

YFPN-GL1 = biological target: T2, YFPN-GL1 (UniProt P27900); test: as above
T2 sequence: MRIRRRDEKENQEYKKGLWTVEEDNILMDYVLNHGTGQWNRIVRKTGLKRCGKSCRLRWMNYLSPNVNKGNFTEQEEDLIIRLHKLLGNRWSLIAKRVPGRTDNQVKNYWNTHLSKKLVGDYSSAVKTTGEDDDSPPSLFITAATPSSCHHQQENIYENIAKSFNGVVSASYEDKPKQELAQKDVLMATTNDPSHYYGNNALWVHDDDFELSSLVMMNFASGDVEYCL

binding (VPS25-YFPC): binds
Molecule: VPS20.2-YFPN (from UniProt Q9FY89 1-216)

binding (YFPN-GL1): binds
B1: YFPC-AtMYC1 (protein, UniProt Q8W2F1 1-526)
chain: MSLTMADGVEAAAGRSKRQNSLLRKQLALAVRSVQWSYAIFWSSSLTQPGVLEWGEGCYNGDMKKRKKSYESHYKYGLQKSKELRKLYLSMLEGDSGTTVSTTHDNLNDDDDNCHSTSMMLSPDDLSDEEWYYLVSMSYVFSPSQCLPGRASATGETIWLCNAQYAENKLFSRSLLARSASIQTVVCFPYLGGVIELGVTELISEDHNLLRNIKSCLMEISAHQDNDDEKKMEIKISEEKHQLPLGISDEDLHYKRTISTVLNYSADRSGKNDKNIRHRQPNIVTSEPGSSFLRWKQCEQQVSGFVQKKKSQNVLRKILHDVPLMHTKRMFPSQNSGLNQDDPSDRRKENEKFSVLRTMVPTVNEVDKESILNNTIKYLQELEARVEELESCMGSVNFVERQRKTTENLNDSVLIEETSGNYDDSTKIDDNSGETEQVTVFRDKTHLRVKLKETEVVIEVRCSYRDYIVADIMETLSNLHMDAFSVRSHTLNKFLTLNLKAKFRGAAVASVGMIKRELRRVIGDLF
